Experimental findings from PMC7593643 are described below.

Series [1] deals with Sox9 (SpSox9) (Scylla paramamosain). In words: EMSA supershift. To be noted: eyestalk nuclear extract, anti-Sox9; LightShift Chemiluminescent EMSA Kit (binding buffer, salt, pH, temperature not stated); 6% polyacrylamide gel, 1x TBE, 100 V, 1 h; protein in an extract. Background: In EMSA bound probe runs differently from free probe, usually more slowly.
For series [2], the system named is Oct4 (SpOct4) (Scylla paramamosain). The series is described as follows: EMSA supershift. To be noted: eyestalk nuclear extract, anti-Oct4; LightShift Chemiluminescent EMSA Kit (binding buffer, salt, pH, temperature not stated); 6% polyacrylamide gel, 1x TBE, 100 V, 1 h; protein in an extract.
The subject of series [3] is Sox9 (SpSox9) (Scylla paramamosain). In words: competition with a labelled probe. As to conditions: 100-fold unlabeled SpTF-mut vs biotin SpTF-wt, eyestalk nuclear extract, no antibody in this assay; LightShift Chemiluminescent EMSA Kit (binding buffer, salt, pH, temperature not stated); 6% polyacrylamide gel, 1x TBE, 100 V, 1 h; protein in an extract; label: none (unlabeled competitor).

The test system of series [4] is Oct4 (SpOct4) (Scylla paramamosain). The series is described as follows: competition with a labelled probe. To be noted: 100-fold unlabeled SpTF-mut vs biotin SpTF-wt, eyestalk nuclear extract, no antibody in this assay; LightShift Chemiluminescent EMSA Kit (binding buffer, salt, pH, temperature not stated); 6% polyacrylamide gel, 1x TBE, 100 V, 1 h; protein in an extract; label: none (unlabeled competitor).

The exact form of at least one protein or probe is not confirmed. Where cells or extracts were used, other partners may take part. For some of these results: No signal at the amounts used counts as a negative. For some of these results: At least one verdict was read from the data and is not stated in words by the source.

For the sequence “GGCATGGTTCCGGGCAGAAATATAAAGTGCATGAGATTCTGGTGAAGGAAGGCTTAAGTA (double strand) [SpTF-wt]”, the binding result in series [1] and in series [2] was “binds” each time.
With “GGCATGGAACCGGGCAGAAATATAAAGTGCATGAGATTCTGGTGAAGGAAGGCTTAAGTA (double strand) [SpTF-mut]”, the binding result in series [3] and in series [4] was “no binding” throughout.
